About 3,700 (7%) of roughly 53,000 sequences were called active.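 How the source made its calls: active means gene knockdowns whose robust z-score for IL-1 alpha signal is at least 2 or at most -2, so actives lie on both sides; inactive means the rest.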 This is one part of the list.

The record followed here is PubChem BioAssay AID1508600 (Functional Genomics Laboratory (NCATS/FGL), 2020).

The nature of this experiment: Components of the Cytosolic LPS Sensing Pathway: Gene Identification via Genome-wide siRNA Screen.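 Further: robust z of the log signal after scaling to non-targeting control siRNA wells of the plate.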 The conditions noted are these: RAW264.7 macrophages, IL-1a HTRF, actives lie on both sides, screened at 100 nM (by protocol), cells primed 5 h with Pam3CSK4 first. The method in brief:
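RAW264.7; siRNA 100 nM final, RNAiMAX, 48h 37 degrees C; Pam3CSK4 5 h; LipidA + TransIT-TKO 24 h; IL-1a HTRF; CellTiter-Glo viability; robust z vs negative-control median.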
For orientation: TR-FRET usually uses a lanthanide donor and a delayed reading to cut background.
As to GGGUUUUAGAAUGAAAUACTT against Emc6, the z-score was active: 2.35.
As for GGAGCUAGAGAGAUCUGCATT against Crispld2, the z-score was inactive: -1.61.
For the sequence GCCAUAUCAACUCAGAUCATT against Ssh2, the z-score is active: 5.04.
Turning to GGAUCCUGUUAAGAUUAUCTT against Phykpl, the z-score was inactive: -0.0411.
In the case of CCAAAUGCGAUUUUAUAACTT against Trps1, the z-score is inactive: 0.796.
Take GGGUAAGACAUACAACAUATT against Uevld: the z-score is inactive: -0.00679.
Take GGUUGGUUUUGUGUUUGCUTT against Pitx1: the z-score was inactive: -0.378.
GCUAAAGGUGUGGUCUUUGTT against Cyp2d13: the z-score was inactive: 1.2.
GGAAACUUGUUCAUGAUUGTT against Olfr1023: the z-score was inactive: -0.436.
On to GGGUCUGUUAUCUAAUCAGTT against Tk2, for which the z-score was inactive: -0.541.
In the case of GCCCUUUACAAGGUUCUGUTT against Slc35f3, the z-score is inactive: 0.107.
With CCAUACCUCCAAGUACUUGTT against Itgal, the z-score was inactive: -1.12.
Take CCAAGUUGUAUUAAAGUCUTT against Nfs1: the z-score is inactive: -0.333.
Take GGAGUCUUCAGGAAGAAAGTT against Rars: the z-score is inactive: -0.406.
With GCUAAAGGACCUGAAAUGGTT against Gas8, the z-score is inactive: 0.347.
With CCCUAAGUCUCUAAUUGACTT against Serpina3h, the z-score was inactive: -0.326.
In the case of GCAGGACAUCUAAAUCUCUTT against Fgfbp1, the z-score is inactive: 0.509.
With GCGUAUUUCCUUUCGGAGUTT against Exoc3 the figure was inactive: 0.116.
As for GGAAGAGGCGCACAUAACGTT against Ccdc125, the z-score is inactive: -0.913.
The figure for GAAUCCCUUCGAGUACGACTT against Fxyd2 is active: 3.17; for GGCUGAAUCACCAGAACAUTT against Ikbke it is inactive: -0.644.
For the sequence GCCAGUAUGACUAGUCGUGTT against Oprk1, the z-score was inactive: -0.302.
As for GGUAGACGGAAUCUAUUUATT against Kcnj15, the z-score is inactive: -1.31.
For the sequence GGUGCCUGUCAUUAAAAUGTT against Lenep, the z-score was inactive: 0.00768.
With GGGUGAUUUCUUGAGUACATT against Exoc3l4 the figure was inactive: -0.821; with GGGUAUUUUGUACGAACACTT against Hacl1, inactive: 1.11.
The figure for GGUUCUGUCUAUUCUGCACTT against Slco4a1 is inactive: 1; for CGGAUGAGAGGACAUGUAUTT against Tbc1d16 it is inactive: -0.624; for CGGUGAUAACAGACAUUAATT against Aldh8a1 it is inactive: -0.561.
With GGCGGAAAAAGUGGAUAAUTT against Stx2 the figure was inactive: -0.628; with GGACGUGUACAUUGUCAAGTT against Unc5a, active: 2.07.
In the case of GUUCAUCCCGUAUCACCACTT against Cox6a2, the z-score is inactive: -0.892.
The figure for GGAUUUGAAUUUGAGAGUUTT against Ubr7 is inactive: -0.639; for GGAUGUCUGACACAAGUGUTT against Olfr390 it is active: 3.42.
As for GGCUCAUCAGAUGUAAACATT against Efcab6, the z-score is active: -2.13.
As for GGAAUGAUAGAAAAUGGACTT against Gvin1, the z-score is active: -2.16.
For GCAGUUAAUGCCAACAGUCTT against Ep400, the z-score is inactive: -1.59.
As to GCAGAACACCGCUGGAAGUTT against Pard3, the z-score is active: 3.14.
The figure for CCUUGUAACUCAUUACAUCTT against Uqcc1 is inactive: 0.903; for GGAACGAAGUCCCUAAAGATT against Csf3 it is inactive: -0.44.
Regarding CCAGAAAGAACCUGCCGUATT against Tdgf1, the z-score is inactive: -1.33.
For GCUUUGCAUAUGAUUCUACTT against Nt5c2, the z-score is inactive: 1.86.
With GGUUUGUCUCAGAGAUUGUTT against Aloxe3, the z-score is inactive: 1.46.
On to GGUUAGAAGGAACUGGGCATT against Cyren, for which the z-score is inactive: 1.16.
With GCGAUGACCUUGUUCGGAUTT against F10 the figure was inactive: 0.93; with GCCAUAGAGUAUCAGCUGATT against Ttc30a1, inactive: 0.833.
With GCUAAUGACGCGAUAGCCUTT against Gtf2b, the z-score is inactive: 0.546.
With GGAUGUAAAACCCUAUAAUTT against Zfp974 the figure was inactive: -0.0799; with GGCAGAAGUAGAUUUACUCTT against Otulinl, inactive: 0.587.
Take GGUUGAUCCAAAAGAUUACTT against Rp2: the z-score was inactive: 0.557.
Turning to GGAGCAAUUCUACCGCUACTT against Fbxw5, the z-score is active: -2.14.
Turning to GGCCAUUGCAUUCAUUGAUTT against Dusp9, the z-score was inactive: -0.951.
For the sequence ACUCCUAUGAGCUAGCUGUTT against Krt42, the z-score was inactive: 0.919.
In the case of ACAAGUUUGAUACCGAAUUTT against Chic1, the z-score was inactive: 1.03.
Regarding GCAAAGGUUUAAGUUAUGATT against L2hgdh, the z-score was inactive: 0.242.
With GGAAGAAGUGAAGAUCAUUTT against Acoxl the figure was inactive: -0.629.
Consider GGAAACUCCCUGAACCGGATT against Zcrb1, for which the z-score is active: 2.26.
GCGAAUGUGUGUAUUCUGGTT against BC055324: the z-score was inactive: -0.791.
GGCGAAUUAUUGAAAACGUTT against Actr8: the z-score is inactive: 0.916.
Regarding GGAAGAAGCAAAGAGGUCCTT against Foxm1, the z-score was inactive: 0.177.
With CGUACAAAGGUAGUAUACCTT against Pi4k2a the figure was inactive: 1.1; with CGGCUCGUUGAAGAACAAATT against Afap1, inactive: -1.32; with GGAUGUGAAUGAGUGUGAGTT against Fbln7, inactive: 0.368.
The figure for GGACCUAAACAACGUGUUGTT against Klf2 is active: 2.74; for GGUUCCUUAAUCACUUUGCTT against Ndufa9 it is inactive: -0.139.
On to GCAAUGAAUUCUAUUAUGGTT against Plrg1, for which the z-score was inactive: -1.51.
Take GGAUUAGUCAUCAUCUUCATT against Gabrb2: the z-score was inactive: 0.134.
Take GUCAUGCUUACUGUUCAGATT against Vmn1r38: the z-score is inactive: -0.722.
For the sequence CCAUUCAAGUAAAUGAACCTT against Efhc2, the z-score is inactive: 0.149.
Regarding GCAUCCCAAGCUUAAAGCGTT against Malt1, the z-score is inactive: 0.635.
With CCCAGUGUGAACAGAGGCATT against Xlr3a, the z-score was inactive: -1.12.
Turning to GCAUAAACAGUGAAGCCACTT against Suv39h2, the z-score is inactive: -0.994.
Regarding GGAGACAGAAAGAGAAAAGTT against Pou3f2, the z-score is inactive: -0.578.
For the sequence GGUGAACCAAAGACACUUCTT against Pcdhgc4, the z-score was inactive: -0.0248.
With GGGUAGGAAACAAACACAGTT against Cox11, the z-score is inactive: -0.234.
In the case of GGACCCAGAUGUGACUGAGTT against Svil, the z-score is inactive: 0.242.
Take GGAAUUAUCUGAGCCUGUGTT against Fam193b: the z-score was inactive: -0.0725.
On to GACUGUGUUUAUUCCUCUGTT against Olfr1450, for which the z-score is inactive: 0.843.
As to AGAUGAUGAAAGCUUCUGCTT against Cyp2c40, the z-score was inactive: -0.0568.
On to GGAGGUAGUAGAUUCUUCCTT against Dnase1l1, for which the z-score was inactive: -1.39.
Turning to GCUAACCAAAGUUUUGAGATT against Rbm11, the z-score was inactive: 1.37.
As for GGGAGAAAAUUGGCUUAGATT against Dclre1b, the z-score was inactive: 0.424.
With CCGCUCUGUUUCAAUCCUGTT against Atp8b5, the z-score is inactive: -0.918.
Turning to GCUGGAGAUUCGUUACCGCTT against Cxxc1, the z-score is inactive: 1.22.
Turning to GGAAAUCUUUCUGACAGUCTT against Atoh8, the z-score is inactive: 0.69.
Take GCGAAAGCAGCUGUCGGAATT against Nkx3-1: the z-score is inactive: 0.324.
With GGAUCUCAGAAGCUUAGUUTT against Atxn7 the figure was inactive: 0.127.
In the case of GGACUGCUUUUUUUACUCATT against Mta2, the z-score was active: -2.07.
Turning to GGUUGUUUCACCAAUAGUUTT against Idi1, the z-score is inactive: -0.454.
Turning to GGUGCUCCGAACAAGUUGATT against Cmc1, the z-score is inactive: 0.493.
In the case of GGCCACCAAGACCAAUGAUTT against Akap8, the z-score was inactive: 0.154.
Regarding GCCAAAUCAGGGACUGCUATT against Prkaa1, the z-score was inactive: 1.21.
GGACAGUGCCACUUAAACCTT against Tbxa2r: the z-score was inactive: -1.
Turning to GGCACGUCUCUAUUCAAGATT against Rab21, the z-score was inactive: 0.747.
GCAUCAGAUAGAGAUUGCUTT against Acnat2: the z-score was inactive: -0.512.
With GCUGUAUUUCUGUUAACACTT against Pacs2 the figure was inactive: -0.411; with GGCCAACAGGUGCAAGAAATT against Rspo4, inactive: -1.32; with GGAGAAGUUGGCAAAGAUGTT against Col9a3, inactive: 0.322.
With GGAGAAAUGGUACAAGGUCTT against Nxf2 the figure was inactive: 0.637; with GGAGAGCACGAUAACAAGATT against Fabp5, inactive: 1.19.
Turning to GCUCUCCUUGAUCGAGAGATT against Spryd7, the z-score was active: -2.65.
Turning to GCUGGCUUUAAAAAUAUCUTT against Nt5dc3, the z-score was inactive: 0.174.
For GGGAGGUAGUCGUAGAAAUTT against Trp53i11, the z-score is inactive: -0.607.
Regarding GGUUACCUAUACAUUUCAGTT against Erbb2, the z-score was inactive: 0.579.
Take GGGCAUGGAGGAGUACAUUTT against Nat8f1: the z-score is inactive: 0.27.
With GGAGGAAGAAGAGAAAGCCTT against Ppm1f the figure was inactive: -1.05; with “GGCUUUAAAAGCCUAUAUGTT against 4933400A11Rik”, inactive: 1.35.
